{"sequences": {"note": "Chains of the proteins cited; added tags and fusions are not shown. Lines headed by an entry give the natural chain unless they say otherwise; changes in a name come on top.", "UniProt Q9BWK5": "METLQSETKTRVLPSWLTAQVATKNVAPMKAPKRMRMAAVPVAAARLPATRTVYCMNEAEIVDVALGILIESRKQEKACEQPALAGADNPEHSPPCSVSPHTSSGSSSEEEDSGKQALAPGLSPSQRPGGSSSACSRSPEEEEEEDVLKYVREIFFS", "UniProt Q9H019": "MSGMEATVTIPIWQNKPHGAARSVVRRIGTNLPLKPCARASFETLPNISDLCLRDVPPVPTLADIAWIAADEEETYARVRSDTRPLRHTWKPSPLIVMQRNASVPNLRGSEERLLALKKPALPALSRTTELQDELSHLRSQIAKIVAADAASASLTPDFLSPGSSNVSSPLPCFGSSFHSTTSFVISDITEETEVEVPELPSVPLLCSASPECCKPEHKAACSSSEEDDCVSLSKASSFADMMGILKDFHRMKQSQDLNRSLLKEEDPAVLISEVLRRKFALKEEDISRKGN", "UniProt Q9BWJ5": "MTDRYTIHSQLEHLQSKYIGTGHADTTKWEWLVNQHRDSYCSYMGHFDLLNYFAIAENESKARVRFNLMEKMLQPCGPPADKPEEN", "UniProt Q9BV68": "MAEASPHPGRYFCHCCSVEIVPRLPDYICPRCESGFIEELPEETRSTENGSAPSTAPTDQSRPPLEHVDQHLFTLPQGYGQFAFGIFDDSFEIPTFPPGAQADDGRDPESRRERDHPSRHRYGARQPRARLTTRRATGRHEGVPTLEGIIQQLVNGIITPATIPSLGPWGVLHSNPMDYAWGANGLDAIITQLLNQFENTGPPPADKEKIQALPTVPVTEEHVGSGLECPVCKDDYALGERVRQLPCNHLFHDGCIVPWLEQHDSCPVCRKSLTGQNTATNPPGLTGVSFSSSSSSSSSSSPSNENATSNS", "UniProt Q9BZQ6": "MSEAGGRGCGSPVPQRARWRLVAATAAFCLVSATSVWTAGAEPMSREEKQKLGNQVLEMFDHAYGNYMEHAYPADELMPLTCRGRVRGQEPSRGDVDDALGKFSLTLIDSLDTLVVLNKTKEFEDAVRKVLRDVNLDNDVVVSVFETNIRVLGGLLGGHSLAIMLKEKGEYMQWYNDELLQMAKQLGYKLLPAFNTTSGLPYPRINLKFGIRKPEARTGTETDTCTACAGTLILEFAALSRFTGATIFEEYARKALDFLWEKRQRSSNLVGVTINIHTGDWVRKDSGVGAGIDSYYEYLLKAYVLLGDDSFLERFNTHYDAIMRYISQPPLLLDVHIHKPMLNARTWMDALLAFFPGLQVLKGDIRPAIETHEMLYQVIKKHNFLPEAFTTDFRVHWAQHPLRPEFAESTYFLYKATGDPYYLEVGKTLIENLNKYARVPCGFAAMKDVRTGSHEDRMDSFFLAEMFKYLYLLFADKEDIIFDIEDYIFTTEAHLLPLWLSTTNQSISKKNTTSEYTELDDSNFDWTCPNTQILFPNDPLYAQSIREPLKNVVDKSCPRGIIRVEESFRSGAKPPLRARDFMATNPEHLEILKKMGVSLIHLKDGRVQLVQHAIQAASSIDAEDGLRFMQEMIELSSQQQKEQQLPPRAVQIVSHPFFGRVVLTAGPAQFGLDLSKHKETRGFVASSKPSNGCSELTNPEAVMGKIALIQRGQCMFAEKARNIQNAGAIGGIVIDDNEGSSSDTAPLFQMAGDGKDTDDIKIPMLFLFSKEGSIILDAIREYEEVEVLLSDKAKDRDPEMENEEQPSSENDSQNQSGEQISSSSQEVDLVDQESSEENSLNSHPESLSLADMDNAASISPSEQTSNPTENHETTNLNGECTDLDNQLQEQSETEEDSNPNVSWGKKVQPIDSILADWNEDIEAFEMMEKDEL", "UniProt Q9C0C4, whole entry": "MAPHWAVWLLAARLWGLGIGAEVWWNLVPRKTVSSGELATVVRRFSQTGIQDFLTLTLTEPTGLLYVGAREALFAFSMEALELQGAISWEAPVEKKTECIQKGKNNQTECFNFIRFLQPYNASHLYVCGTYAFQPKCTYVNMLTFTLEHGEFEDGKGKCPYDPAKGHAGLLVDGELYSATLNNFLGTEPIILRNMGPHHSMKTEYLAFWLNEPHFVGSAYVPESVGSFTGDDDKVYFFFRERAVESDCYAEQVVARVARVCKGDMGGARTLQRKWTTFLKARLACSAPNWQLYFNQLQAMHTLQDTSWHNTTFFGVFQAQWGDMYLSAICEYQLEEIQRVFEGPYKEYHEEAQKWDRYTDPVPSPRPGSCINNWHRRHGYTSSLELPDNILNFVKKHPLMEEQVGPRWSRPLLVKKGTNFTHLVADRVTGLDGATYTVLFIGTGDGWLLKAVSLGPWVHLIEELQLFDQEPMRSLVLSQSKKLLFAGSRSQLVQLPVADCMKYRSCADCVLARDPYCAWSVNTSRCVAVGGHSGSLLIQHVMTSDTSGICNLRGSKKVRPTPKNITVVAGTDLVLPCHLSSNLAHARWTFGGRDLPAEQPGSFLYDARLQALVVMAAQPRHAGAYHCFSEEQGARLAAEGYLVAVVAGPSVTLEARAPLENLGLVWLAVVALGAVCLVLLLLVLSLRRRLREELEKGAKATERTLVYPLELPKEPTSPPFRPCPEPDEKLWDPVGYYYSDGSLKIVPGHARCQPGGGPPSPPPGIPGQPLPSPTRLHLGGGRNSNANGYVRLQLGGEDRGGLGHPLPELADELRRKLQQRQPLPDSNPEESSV", "UniProt Q9BWF3": "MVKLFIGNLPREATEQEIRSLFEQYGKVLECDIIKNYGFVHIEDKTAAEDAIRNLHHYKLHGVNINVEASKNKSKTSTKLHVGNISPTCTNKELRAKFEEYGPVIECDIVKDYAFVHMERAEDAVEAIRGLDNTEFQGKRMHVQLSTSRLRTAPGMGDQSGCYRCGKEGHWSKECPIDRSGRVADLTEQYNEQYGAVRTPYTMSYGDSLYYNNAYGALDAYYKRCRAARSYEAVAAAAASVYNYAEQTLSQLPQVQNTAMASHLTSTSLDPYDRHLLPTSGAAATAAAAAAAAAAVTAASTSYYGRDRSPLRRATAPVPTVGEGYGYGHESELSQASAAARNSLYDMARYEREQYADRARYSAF", "UniProt Q9BVR0": "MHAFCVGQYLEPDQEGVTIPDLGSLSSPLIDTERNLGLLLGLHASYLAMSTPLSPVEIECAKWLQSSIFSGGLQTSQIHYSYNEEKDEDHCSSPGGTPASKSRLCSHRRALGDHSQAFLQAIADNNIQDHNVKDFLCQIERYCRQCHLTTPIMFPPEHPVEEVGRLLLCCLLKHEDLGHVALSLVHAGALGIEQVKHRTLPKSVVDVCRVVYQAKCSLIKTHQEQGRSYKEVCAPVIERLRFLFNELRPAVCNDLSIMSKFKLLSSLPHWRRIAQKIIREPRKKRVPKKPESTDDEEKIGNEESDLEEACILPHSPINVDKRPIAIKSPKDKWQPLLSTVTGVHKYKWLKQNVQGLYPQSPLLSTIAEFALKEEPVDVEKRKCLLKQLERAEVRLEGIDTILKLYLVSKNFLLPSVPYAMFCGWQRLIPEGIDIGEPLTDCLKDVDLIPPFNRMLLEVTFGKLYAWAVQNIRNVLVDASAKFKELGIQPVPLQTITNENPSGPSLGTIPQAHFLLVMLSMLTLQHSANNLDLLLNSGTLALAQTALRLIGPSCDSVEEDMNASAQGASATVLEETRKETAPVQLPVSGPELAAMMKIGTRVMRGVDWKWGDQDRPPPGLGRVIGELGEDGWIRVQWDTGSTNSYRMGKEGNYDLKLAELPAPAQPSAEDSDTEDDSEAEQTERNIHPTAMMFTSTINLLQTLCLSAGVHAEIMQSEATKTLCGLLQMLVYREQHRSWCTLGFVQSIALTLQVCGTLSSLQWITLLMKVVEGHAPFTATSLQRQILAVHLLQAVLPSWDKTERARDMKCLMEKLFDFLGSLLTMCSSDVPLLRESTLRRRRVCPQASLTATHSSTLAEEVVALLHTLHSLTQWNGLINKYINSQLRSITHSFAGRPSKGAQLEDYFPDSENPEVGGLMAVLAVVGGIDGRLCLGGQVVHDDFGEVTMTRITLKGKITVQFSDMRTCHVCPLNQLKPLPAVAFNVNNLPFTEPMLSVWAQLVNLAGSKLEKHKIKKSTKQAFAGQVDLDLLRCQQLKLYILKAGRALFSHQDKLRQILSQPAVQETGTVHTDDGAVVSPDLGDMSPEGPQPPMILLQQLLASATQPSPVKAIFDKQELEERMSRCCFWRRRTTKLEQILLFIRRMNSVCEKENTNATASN", "UniProt Q9BUV8": "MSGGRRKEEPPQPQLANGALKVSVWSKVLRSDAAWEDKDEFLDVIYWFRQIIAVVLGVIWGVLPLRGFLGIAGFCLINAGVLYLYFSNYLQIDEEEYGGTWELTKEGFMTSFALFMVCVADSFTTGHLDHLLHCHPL", "UniProt Q9BV94": "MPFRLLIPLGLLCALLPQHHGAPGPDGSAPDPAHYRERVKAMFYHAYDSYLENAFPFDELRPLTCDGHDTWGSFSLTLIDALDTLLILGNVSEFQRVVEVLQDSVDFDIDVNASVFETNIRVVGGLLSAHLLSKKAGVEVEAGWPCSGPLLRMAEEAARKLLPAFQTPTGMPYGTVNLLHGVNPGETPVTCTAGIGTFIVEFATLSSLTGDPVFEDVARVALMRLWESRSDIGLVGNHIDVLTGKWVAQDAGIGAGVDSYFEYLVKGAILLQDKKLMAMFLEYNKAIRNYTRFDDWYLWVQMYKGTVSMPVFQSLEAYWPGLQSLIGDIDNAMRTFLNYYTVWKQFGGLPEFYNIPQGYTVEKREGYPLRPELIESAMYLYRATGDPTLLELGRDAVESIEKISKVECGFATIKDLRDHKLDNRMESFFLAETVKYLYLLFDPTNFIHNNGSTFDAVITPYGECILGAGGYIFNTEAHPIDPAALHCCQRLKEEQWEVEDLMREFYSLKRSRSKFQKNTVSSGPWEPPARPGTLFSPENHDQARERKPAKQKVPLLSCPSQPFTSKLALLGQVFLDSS", "UniProt Q9BZQ8": "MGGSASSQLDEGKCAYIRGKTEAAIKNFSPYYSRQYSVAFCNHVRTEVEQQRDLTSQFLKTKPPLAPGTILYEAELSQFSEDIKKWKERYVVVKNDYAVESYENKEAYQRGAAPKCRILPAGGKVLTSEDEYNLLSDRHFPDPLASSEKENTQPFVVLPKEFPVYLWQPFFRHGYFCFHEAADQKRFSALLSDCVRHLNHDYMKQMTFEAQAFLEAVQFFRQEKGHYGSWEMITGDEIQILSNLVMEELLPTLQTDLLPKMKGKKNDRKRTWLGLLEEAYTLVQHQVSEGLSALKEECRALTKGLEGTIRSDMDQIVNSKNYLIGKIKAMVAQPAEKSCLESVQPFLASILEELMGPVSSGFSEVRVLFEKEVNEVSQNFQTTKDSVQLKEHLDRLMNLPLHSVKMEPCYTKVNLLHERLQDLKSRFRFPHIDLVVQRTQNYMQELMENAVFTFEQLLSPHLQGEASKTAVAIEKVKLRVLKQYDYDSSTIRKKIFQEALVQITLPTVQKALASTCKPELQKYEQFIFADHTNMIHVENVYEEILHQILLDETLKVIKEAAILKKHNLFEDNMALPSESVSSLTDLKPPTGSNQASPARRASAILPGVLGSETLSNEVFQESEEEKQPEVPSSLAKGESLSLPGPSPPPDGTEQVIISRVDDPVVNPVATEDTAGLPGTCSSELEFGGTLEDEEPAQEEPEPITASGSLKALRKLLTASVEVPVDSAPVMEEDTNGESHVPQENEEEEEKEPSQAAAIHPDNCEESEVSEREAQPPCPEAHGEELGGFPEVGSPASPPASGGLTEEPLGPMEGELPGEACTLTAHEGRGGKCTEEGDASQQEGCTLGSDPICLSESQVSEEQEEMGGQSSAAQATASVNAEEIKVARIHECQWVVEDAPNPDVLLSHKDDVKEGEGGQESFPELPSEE", "UniProt Q9GZY8": "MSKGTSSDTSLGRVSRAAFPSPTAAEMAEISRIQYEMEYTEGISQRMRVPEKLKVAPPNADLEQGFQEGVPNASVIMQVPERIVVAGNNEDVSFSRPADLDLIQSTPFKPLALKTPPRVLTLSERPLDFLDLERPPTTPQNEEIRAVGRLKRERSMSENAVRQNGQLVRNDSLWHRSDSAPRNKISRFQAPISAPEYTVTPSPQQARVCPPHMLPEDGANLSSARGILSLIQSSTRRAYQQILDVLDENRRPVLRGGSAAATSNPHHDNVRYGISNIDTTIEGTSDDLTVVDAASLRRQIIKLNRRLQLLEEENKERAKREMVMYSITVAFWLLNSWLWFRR", "UniProt Q9BY11": "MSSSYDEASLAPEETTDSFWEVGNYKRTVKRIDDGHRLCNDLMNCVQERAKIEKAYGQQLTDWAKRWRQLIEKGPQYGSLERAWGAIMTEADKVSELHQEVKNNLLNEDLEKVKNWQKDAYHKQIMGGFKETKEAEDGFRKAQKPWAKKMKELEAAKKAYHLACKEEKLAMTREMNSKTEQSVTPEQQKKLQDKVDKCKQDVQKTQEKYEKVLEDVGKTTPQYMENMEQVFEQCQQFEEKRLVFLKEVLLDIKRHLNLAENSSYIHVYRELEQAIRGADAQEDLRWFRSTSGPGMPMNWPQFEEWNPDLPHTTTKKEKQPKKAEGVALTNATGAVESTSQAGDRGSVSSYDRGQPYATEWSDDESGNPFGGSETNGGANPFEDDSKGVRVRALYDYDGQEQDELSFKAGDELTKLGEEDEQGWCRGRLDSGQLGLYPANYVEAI"}, "source": "the supplement of paper PMC12819154", "about": "“High-throughput peptide-centric local stability assay extends protein–ligand identification to membrane proteins, tissues and bacteria” (Nature Structural & Molecular Biology, 2025)", "note": "The other results are listed elsewhere or left out. Most values lie at the level of the controls, where differences are scatter.", "data": [{"compound": "Cc1nc(Nc2ncc(C(=O)Nc3c(C)cccc3Cl)s2)cc(N2CCN(CCO)CC2)n1 [dasatinib]", "assay": "log2 fold change of tryptic peptide abundance, ligand vs vehicle (limited proteolysis) (log2 ratio); higher = more trypsin-susceptible (destabilized)", "conditions": "ligand concentration: 5 uM; sample: K562 cleared lysate", "values": [{"target": "UniProt Q9H0K1 (peptide sequence: HTLSEVTNQLVVMPGAGK, peptide start residue: 483)", "log2 fold change": 0.257}, {"target": "ASPSCR1 (peptide sequence: ECLQHPGGATPVCVYTR, peptide start residue: 126) (UniProt Q9BZE9)", "log2 fold change": 0.459}, {"target": "CYREN (peptide sequence: MAAVPVAAAR, peptide start residue: 37) (UniProt Q9BWK5)", "log2 fold change": -0.0993}, {"target": "UniProt Q9H019 (peptide sequence: IGTNLPLKPCAR, peptide start residue: 28)", "log2 fold change": -0.256}, {"target": "PRKD2 (peptide sequence: STTELLPR, peptide start residue: 225) (UniProt Q9BZL6)", "log2 fold change": -0.0949}, {"target": "WDR33 (peptide sequence: GPPNHHMGPMSER, peptide start residue: 961) (UniProt Q9C0J8)", "log2 fold change": 0.103}, {"target": "ZYG11B (peptide sequence: HGRPPPCKK, peptide start residue: 729) (UniProt Q9C0D3)", "log2 fold change": 0.0887}, {"target": "SF3B5 (peptide sequence: YIGTGHADTTK, peptide start residue: 18) (UniProt Q9BWJ5)", "log2 fold change": 0.242}, {"target": "RNF126 (peptide sequence: ERDHPSR, peptide start residue: 113) (UniProt Q9BV68)", "log2 fold change": -0.105}, {"target": "UniProt Q9C0D4 (peptide sequence: GPIDMSPNIETPLRPK, peptide start residue: 831)", "log2 fold change": -0.741}, {"target": "THUMPD3 (peptide sequence: KINQNSSK, peptide start residue: 148) (UniProt Q9BV44)", "log2 fold change": 0.225}, {"target": "EDEM3 (peptide sequence: VPCGFAAMK, peptide start residue: 439) (UniProt Q9BZQ6)", "log2 fold change": 0.187}, {"target": "CRNKL1 (peptide sequence: LVESDAEAEAVREVYER, peptide start residue: 500) (UniProt Q9BZJ0)", "log2 fold change": 0.342}, {"target": "SEMA4C (peptide sequence: NSNANGYVR, peptide start residue: 783) (UniProt Q9C0C4)", "log2 fold change": -0.422}, {"target": "UniProt Q9BW85 (peptide sequence: QAHVDFEAMLR, peptide start residue: 164)", "log2 fold change": 0.0805}, {"target": "UniProt Q9BZ68 (peptide sequence: EKLDSFLPAHLCK, peptide start residue: 195)", "log2 fold change": -0.0582}, {"target": "UniProt Q9BVL2 (peptide sequence: KMFLGDAVDVFETR, peptide start residue: 422)", "log2 fold change": -0.0855}, {"target": "ZDHHC5 (peptide sequence: SEPSLEPESFR, peptide start residue: 398) (UniProt Q9C0B5)", "log2 fold change": -0.249}, {"target": "RBM4 (peptide sequence: MHVQLSTSR, peptide start residue: 141) (UniProt Q9BWF3)", "log2 fold change": 0.326}, {"target": "MKRN2 (peptide sequence: QLSSQGTVR, peptide start residue: 363) (UniProt Q9H000)", "log2 fold change": -0.28}, {"target": "UniProt Q9BVR0 (peptide sequence: DKWQPLLSTVTGVHK, peptide start residue: 1604)", "log2 fold change": 0.351}, {"target": "UniProt Q9BUV8 (peptide sequence: RKEEPPQPQLANGALK, peptide start residue: 6)", "log2 fold change": 0.0784}, {"target": "EDEM2 (peptide sequence: ATGDPTLLELGR, peptide start residue: 383) (UniProt Q9BV94)", "log2 fold change": -0.0359}, {"target": "SAP130 (peptide sequence: KAMLQEIANQK, peptide start residue: 927) (UniProt Q9H0E3)", "log2 fold change": -0.532}, {"target": "GTPBP4 (peptide sequence: KREDSAPPSSVAR, peptide start residue: 554) (UniProt Q9BZE4)", "log2 fold change": 0.159}, {"target": "UniProt Q9BZQ8 (peptide sequence: LMNLPLHSVK, peptide start residue: 396)", "log2 fold change": -0.574}, {"target": "TMEM59 (peptide sequence: LNRYPASSLVVVR, peptide start residue: 288) (UniProt Q9BXS4)", "log2 fold change": -0.22}, {"target": "MFF (peptide sequence: SMSENAVR, peptide start residue: 155) (UniProt Q9GZY8)", "log2 fold change": -0.0915}, {"target": "PACSIN1 (peptide sequence: TEQSVTPEQQK, peptide start residue: 179) (UniProt Q9BY11)", "log2 fold change": 0.00295}]}]}
